Measured values reported in PMC9016070.
These are yes or no findings as the source states them, for the method shown. In cells and extracts the contact can be indirect. Here binding means that the protein was enriched with, or labelled near, the bait; the list need not be complete. Tags and fused reporters may be left off the sequences shown.

Biological target: T1, FLAG-tagged GBP2 (guanylate-binding protein 2) (UniProt P32456)
T1 sequence: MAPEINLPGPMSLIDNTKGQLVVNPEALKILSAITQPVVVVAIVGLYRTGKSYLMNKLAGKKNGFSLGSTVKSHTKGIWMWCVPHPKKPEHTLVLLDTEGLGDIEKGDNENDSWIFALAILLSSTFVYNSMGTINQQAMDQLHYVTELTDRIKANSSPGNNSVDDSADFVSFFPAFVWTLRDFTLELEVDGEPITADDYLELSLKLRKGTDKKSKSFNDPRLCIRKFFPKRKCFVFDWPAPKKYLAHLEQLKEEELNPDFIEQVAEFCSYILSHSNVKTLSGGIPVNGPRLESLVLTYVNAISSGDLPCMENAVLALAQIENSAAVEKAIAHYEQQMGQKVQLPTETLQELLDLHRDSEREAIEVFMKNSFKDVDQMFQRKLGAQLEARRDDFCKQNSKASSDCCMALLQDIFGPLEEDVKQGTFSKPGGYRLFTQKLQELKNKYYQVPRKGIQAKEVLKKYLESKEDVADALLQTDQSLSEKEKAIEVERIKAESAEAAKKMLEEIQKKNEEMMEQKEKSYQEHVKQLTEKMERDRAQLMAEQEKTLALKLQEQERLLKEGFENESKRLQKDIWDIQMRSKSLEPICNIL
Assay: affinity purification with mass spectrometry; anti-FLAG immunoprecipitation from 1 mg whole-cell extract of 293T cells overexpressing FLAG-GBP2, low-salt lysis buffer, 2 h at 4 °C, three washes; SDS-PAGE bands digested with trypsin, LC-MS/MS; compared with an IgG group

B1: kinesin family member 22 (KIF22) (protein, UniProt Q14807 1-665)
chain: MAAGGSTQQRRREMAAASAAAISGAGRCRLSKIGATRRPPPARVRVAVRLRPFVDGTAGASDPPCVRGMDSCSLEIANWRNHQETLKYQFDAFYGERSTQQDIYAGSVQPILRHLLEGQNASVLAYGPTGAGKTHTMLGSPEQPGVIPRALMDLLQLTREEGAEGRPWALSVTMSYLEIYQEKVLDLLDPASGDLVIREDCRGNILIPGLSQKPISSFADFERHFLPASRNRTVGATRLNQRSSRSHAVLLVKVDQRERLAPFRQREGKLYLIDLAGSEDNRRTGNKGLRLKESGAINTSLFVLGKVVDALNQGLPRVPYRDSKLTRLLQDSLGGSAHSILIANIAPERRFYLDTVSALNFAARSKEVINRPFTNESLQPHALGPVKLSQKELLGPPEAKRARGPEEEEIGSPEPMAAPASASQKLSPLQKLSSMDPAMLERLLSLDRLLASQGSQGAPLLSTPKRERMVLMKTVEEKDLEIERLKTKQKELEAKMLAQKAEEKENHCPTMLRPLSHRTVTGAKPLKKAVVMPLQLIQEQAASPNAEIHILKNKGRKRKLESLDALEPEEKAEDCWELQISPELLAHGRQKILDLLNEGSARDLRSLQRIGPKKAQLIVGWRELHGPFSQVEDLERVEGITGKQMESFLKANILGLAAGQRCGAS
- binding: binds
